# Measured values as given in patent US20240390459A1, “ANTI-DEPRESSION AND ANTI-ANXIETY APPLICATION OF POLYPEPTIDE AND COMPLEX” (SHENZHEN CHENYANG BIOLOGICAL TECHNOLOGY CO., LTD, priority 2021, published 2024).
# Chains of the proteins cited; added tags and fusions are not shown. Lines headed by an entry give the natural chain unless they say otherwise; changes in a name come on top.
# UniProt Q61616: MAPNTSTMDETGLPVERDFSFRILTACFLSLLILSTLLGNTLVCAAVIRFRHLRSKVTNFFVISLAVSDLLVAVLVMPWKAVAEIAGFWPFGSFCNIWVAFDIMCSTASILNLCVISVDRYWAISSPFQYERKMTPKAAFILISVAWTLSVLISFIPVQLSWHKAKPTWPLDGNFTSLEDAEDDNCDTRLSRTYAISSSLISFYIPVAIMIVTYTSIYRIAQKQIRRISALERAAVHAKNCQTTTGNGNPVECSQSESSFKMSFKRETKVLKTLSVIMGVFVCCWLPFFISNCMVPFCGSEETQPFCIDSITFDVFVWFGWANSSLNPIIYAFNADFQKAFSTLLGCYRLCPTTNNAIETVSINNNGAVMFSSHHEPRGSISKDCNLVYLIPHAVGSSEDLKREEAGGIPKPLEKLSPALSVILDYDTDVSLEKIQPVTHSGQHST
# These are yes or no findings as the source states them, for the method shown. Binding seen in cells or lysates may run through a third protein. Some entries that bind do so weakly or less than the wild type. Tags and fused reporters may be left off the sequences shown.
# B1: GST fusion protein containing a SV region of 5-HT2AR (GST-5HT2AR-SV) (peptide, not shown: a dimerising Fc or GST)
# chain: SKDNSDGVNEKVSCV
# Molecular target: Dopamine D1 receptor (D1R), endogenous, from mouse hippocampus tissue (mouse) (UniProt Q61616)
# Assay: GST pulldown from mouse hippocampus extract, Western blot
binder,measurement,value
B1,binding,binds
